Among the data in PubChem BioAssay AID248 (DTP/NCI, 2004) are survivor count and T/C values, retold here.

The experiment relates to L1210 leukemia ip in BDF1 mice, survival T/C. Briefly: NCI In Vivo Anticancer Drug Screen. Data for tumor model L1210 Leukemia (intraperitoneal) in B6D2F1 (BDF1) mice. The following applies: T/C endpoint: mean survival time, higher T/C = longer survival.
Where [1] appears, read: dose: 100.0 mg/kg/injection, schedule: Q01DX001 (ip), vehicle: saline.
Setting [2] is: dose: 200.0 mg/kg/injection, schedule: Q01DX001 (ip), vehicle: saline.
[3] abbreviates: dose: 400.0 mg/kg/injection, schedule: Q01DX001 (ip), vehicle: saline.
The mark [4] stands for this setting: dose: 400.0 mg/kg/injection, schedule: Q04DX003 (ip), vehicle: other.
Setting [5] is: dose: 200.0 mg/kg/injection, schedule: Q01DX009 (ip), vehicle: Klucel (hydroxypropylcellulose) (HPC).
Where [6] appears, read: dose: 400.0 mg/kg/injection, schedule: Q01DX009 (ip), vehicle: Klucel (hydroxypropylcellulose) (HPC).
[7] abbreviates: dose: 200.0 mg/kg/injection, schedule: Q04DX002 (ip), vehicle: saline with Tween-80.
Where [8] appears, read: dose: 400.0 mg/kg/injection, schedule: Q01DX009 (ip), vehicle: saline.
Setting [9] is: dose: 400.0 mg/kg/injection, schedule: Q04DX003 (ip), vehicle: saline.

The list does not hold the whole screen: it is rich in T/C values a quarter to a half above the control, in often repeated tests (any T/C) and in doses without a T/C. Further doses and runs are listed elsewhere. T/C: endpoint of the treated group in % of that of the vehicle group. Some doses have a count of surviving animals in place of a T/C: the source holds a T/C of zero for them, seemingly a mark for toxic or unscored doses. Some survivor counts are full or nearly so, which does not show that the dose was tolerated: the source hardly ever lists a survival T/C far under the control, and the zero likely stands for such cases as well. Counts of survivors are from the toxicity check (mostly the fifth day) where no day follows; animals may have died later. Schedules are NCI's codes, taken here to give the interval after Q, in days (D) or hours (H), and the number of doses after X. Some structures stand for samples that the source files as different forms (salt, stereo form or complex); doses refer to the form tested. For survival time, this PubChem deposit counts one and a half times the control or more as active, and values a quarter to a half above the control carry no call in these data; other NCI protocols may use other cut-offs.

Take `N#CC1=C(C#N)C(=O)C(c2ccccc2)=C(c2ccccc2)C1=O`: the survivor count was 1 of 4 (dose: 40.0 mg/kg/injection, schedule: Q01DX001 (ip), vehicle: saline); 0 of 4 (dose: 80.0 mg/kg/injection, schedule: Q01DX001 (ip), vehicle: saline); 0 of 4 under setting [1]; 0 of 4 under setting [2]; 0 of 4 under setting [3].
Consider `[O-]/[N+](=C\c1ccccc1)Cc1ccccc1`, for which, under “dose: 400.0 mg/kg/injection, schedule: Q04DX003 (ip), vehicle: carboxymethylcellulose (CMC)”, the survivor count is on record as 3 of 6.
As for `Nc1nc(=S)c2[nH]c(N=Nc3ccc(S(=O)(=O)O)cc3)nc2[nH]1`, the T/C by setting is: (dose: 25.0 mg/kg/injection, schedule: Q04DX003 (ip), vehicle: Klucel (hydroxypropylcellulose) (HPC)) 140 % of control; (dose: 100.0 mg/kg/injection, schedule: Q04DX003 (ip), vehicle: Klucel (hydroxypropylcellulose) (HPC)) 132 % of control. Also, the survivor count was 3 of 6 (dose: 200.0 mg/kg/injection, schedule: Q04DX003 (ip), vehicle: Klucel (hydroxypropylcellulose) (HPC)) and 1 of 6 (dose: 400.0 mg/kg/injection, schedule: Q04DX003 (ip), vehicle: Klucel (hydroxypropylcellulose) (HPC)).
As to `COC(=O)/C(=C\c1ccc([N+](=O)[O-])s1)C(C)=O`, the survivor count was 4 of 4 (dose: 25.0 mg/kg/injection, schedule: Q01DX005 (ip), vehicle: saline with Tween-80) and 3 of 4 (dose: 50.0 mg/kg/injection, schedule: Q01DX005 (ip), vehicle: saline with Tween-80).
`CC[C@H](CC[C@@H](C)[C@H]1CC[C@H]2[C@@H]3CC=C4C[C@@H](OC(=O)CN5CCNCC5)CC[C@]4(C)[C@H]3CC[C@]12C)C(C)C`: the survivor count (dose: 400.0 mg/kg/injection, schedule: Q01DX009 (ip), vehicle: water) was 0 of 6.
With `CCc1c(Cl)c(C)c(Cl)c(O)c1Cl`, the survivor count under setting [4] is 2 of 3.
Regarding `CC[n+]1ccc(Nc2ccc(NC(=O)c3ccc(N)cc3)cc2)cc1`, the survivor count (dose: 100.0 mg/kg/injection, schedule: Q01DX009 (ip), vehicle: Klucel (hydroxypropylcellulose) (HPC)) is 3 of 6; the survivor count under setting [5] is recorded as 0 of 6; the survivor count under setting [6] was 0 of 6.
On to `NC(N)=NC(N)=Nc1ccc(Cl)c(Cl)c1`, for which the survivor count reads like this: (dose: 75.0 mg/kg/injection, schedule: Q01DX009 (ip), vehicle: Klucel (hydroxypropylcellulose) (HPC)) 2 of 6; (dose: 150.0 mg/kg/injection, schedule: Q01DX009 (ip), vehicle: Klucel (hydroxypropylcellulose) (HPC)) 0 of 6; (dose: 200.0 mg/kg/injection, schedule: Q04DX003 (ip), vehicle: saline with Tween-80) 5 of 6; (dose: 300.0 mg/kg/injection, schedule: Q01DX009 (ip), vehicle: Klucel (hydroxypropylcellulose) (HPC)) 0 of 6; (dose: 400.0 mg/kg/injection, schedule: Q04DX003 (ip), vehicle: saline with Tween-80) 0 of 6.
`c1ccc(NC2=NCCO2)cc1`: under setting [7], the survivor count is listed as 3 of 3.
`COc1ccc(NC(=O)Oc2ccc(C(C)=O)cc2)cc1`: the survivor count runs as follows: under setting [5], 5 of 6; under setting [6], 1 of 6.
`CCN(CC)C(=O)N1CCCCC1`: the survivor count under setting [8] is listed as 0 of 3.
As for `C=CC(=O)NCNC(C)C` (tested in a mixture with another compound), the survivor count (dose: 50.0 mg/kg/injection, schedule: Q01DX009 (ip), vehicle: saline) is on record as 0 of 3.
For `Cc1ccc2ccc(/C=N/Nc3ccc4cccc(O)c4n3)c(O)c2n1`, the survivor count (dose: 200.0 mg/kg/injection, schedule: Q01DX001 (ip), vehicle: carboxymethylcellulose (CMC)) was 3 of 4.
As to `CC1(C)COC(Cc2ccccc2)=N1`, under setting [9], the survivor count is reported as 0 of 6.
Take `O=C1C=CC(=O)C(c2ccccc2)=C1`: the survivor count (dose: 50.0 mg/kg/injection, schedule: Q01DX001 (ip), vehicle: saline) is 3 of 6; the survivor count under setting [1] is 1 of 6; the survivor count under setting [2] is 1 of 6; the survivor count under setting [3] was 1 of 6.
With `CN1CCCCC(=N\O)/C(=N/O)CCCC1`, the survivor count (dose: 400.0 mg/kg/injection, schedule: Q01DX001 (ip), vehicle: carboxymethylcellulose (CMC)) was 0 of 4.
As for `CCOC(=O)CC1COC(=O)C1C(=O)OCC` (stereo not drawn), for the setting “dose: 50.0 mg/kg/injection, schedule: Q01DX009 (ip), vehicle: saline with Tween-80”, the survivor count was 3 of 6.
Regarding `Clc1ccc(C#CP(C#Cc2ccc(Cl)cc2)C#Cc2ccc(Cl)cc2)cc1`, under “dose: 200.0 mg/kg/injection, schedule: Q01DX009 (ip), vehicle: saline with Tween-80”, the survivor count is 3 of 3.
Consider `CC(C)(O)C(CO)c1ccccc1` (stereo not drawn), for which the survivor count by setting is: under setting [2], 5 of 6; under setting [3], 0 of 6.
With `CCC1(CC)C(=O)NC(=NCCCC(N)C(=O)O)NC1=O` (stereo not drawn), where the note is “dose: 300.0 mg/kg/injection, schedule: Q01DX001 (ip), vehicle: carboxymethylcellulose (CMC)”, the survivor count is reported as 1 of 6.
As to `CC12C(=O)OC(=O)C1C1C=CC2C1` (stereo not drawn), the survivor count was 1 of 3 (dose: 400.0 mg/kg/injection, schedule: Q04DX002 (ip), vehicle: Klucel (hydroxypropylcellulose) (HPC)) and 2 of 6 under setting [4].
Turning to `CCCSCCN=C(N)C(N)=NCCSCCC`, the survivor count is 0 of 3 under setting [7] and 0 of 3 (dose: 400.0 mg/kg/injection, schedule: Q04DX002 (ip), vehicle: saline with Tween-80).
As to `S=C1CCNCC1`, the survivor count (dose: 200.0 mg/kg/injection, schedule: Q04DX003 (ip), vehicle: saline) is 2 of 6 and the survivor count under setting [9] is recorded as 0 of 6.
Regarding `Nc1nc(N)c(-c2cccc(Cl)c2)c(CBr)n1`, the survivor count (dose: 100.0 mg/kg/injection, schedule: Q01DX009 (ip), vehicle: saline) was 3 of 6; the survivor count (dose: 200.0 mg/kg/injection, schedule: Q01DX009 (ip), vehicle: saline) is reported as 1 of 6; the survivor count under setting [8] is 0 of 6.
